Data taken from the supplement of paper PMC11006884.
Only a part is listed here, and it is no random draw. The data scatter; read single values as rough.

Chains of the proteins cited; added tags and fusions are not shown. Lines headed by an entry give the natural chain unless they say otherwise; changes in a name come on top.
UniProt O75380, whole entry: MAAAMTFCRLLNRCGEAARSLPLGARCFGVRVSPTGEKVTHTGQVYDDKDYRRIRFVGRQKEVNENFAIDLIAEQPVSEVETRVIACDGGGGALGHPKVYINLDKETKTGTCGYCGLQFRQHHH
UniProt O43707, whole entry, looked up: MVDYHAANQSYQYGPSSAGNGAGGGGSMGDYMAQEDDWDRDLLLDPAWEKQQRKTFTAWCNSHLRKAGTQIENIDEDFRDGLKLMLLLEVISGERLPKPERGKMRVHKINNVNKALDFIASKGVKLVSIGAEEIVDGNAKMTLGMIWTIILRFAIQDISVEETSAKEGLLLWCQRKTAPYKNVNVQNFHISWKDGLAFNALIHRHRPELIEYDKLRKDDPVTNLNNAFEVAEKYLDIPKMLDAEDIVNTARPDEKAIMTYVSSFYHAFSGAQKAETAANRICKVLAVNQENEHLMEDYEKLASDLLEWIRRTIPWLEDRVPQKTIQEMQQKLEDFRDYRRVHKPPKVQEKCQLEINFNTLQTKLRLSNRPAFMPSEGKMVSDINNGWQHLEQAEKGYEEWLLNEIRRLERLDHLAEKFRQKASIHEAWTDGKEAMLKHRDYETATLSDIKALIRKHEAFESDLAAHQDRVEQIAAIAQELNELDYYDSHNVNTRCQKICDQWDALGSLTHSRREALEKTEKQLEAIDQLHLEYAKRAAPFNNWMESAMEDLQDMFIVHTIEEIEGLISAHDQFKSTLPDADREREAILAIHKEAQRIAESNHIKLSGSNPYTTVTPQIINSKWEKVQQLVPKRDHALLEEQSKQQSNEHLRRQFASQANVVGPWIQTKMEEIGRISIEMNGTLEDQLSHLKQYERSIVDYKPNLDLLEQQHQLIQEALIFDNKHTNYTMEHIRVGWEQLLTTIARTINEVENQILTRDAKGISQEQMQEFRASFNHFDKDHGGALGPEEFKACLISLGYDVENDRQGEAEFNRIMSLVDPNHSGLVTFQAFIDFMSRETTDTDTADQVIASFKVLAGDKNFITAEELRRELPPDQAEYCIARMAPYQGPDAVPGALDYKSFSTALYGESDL
UniProt O60942: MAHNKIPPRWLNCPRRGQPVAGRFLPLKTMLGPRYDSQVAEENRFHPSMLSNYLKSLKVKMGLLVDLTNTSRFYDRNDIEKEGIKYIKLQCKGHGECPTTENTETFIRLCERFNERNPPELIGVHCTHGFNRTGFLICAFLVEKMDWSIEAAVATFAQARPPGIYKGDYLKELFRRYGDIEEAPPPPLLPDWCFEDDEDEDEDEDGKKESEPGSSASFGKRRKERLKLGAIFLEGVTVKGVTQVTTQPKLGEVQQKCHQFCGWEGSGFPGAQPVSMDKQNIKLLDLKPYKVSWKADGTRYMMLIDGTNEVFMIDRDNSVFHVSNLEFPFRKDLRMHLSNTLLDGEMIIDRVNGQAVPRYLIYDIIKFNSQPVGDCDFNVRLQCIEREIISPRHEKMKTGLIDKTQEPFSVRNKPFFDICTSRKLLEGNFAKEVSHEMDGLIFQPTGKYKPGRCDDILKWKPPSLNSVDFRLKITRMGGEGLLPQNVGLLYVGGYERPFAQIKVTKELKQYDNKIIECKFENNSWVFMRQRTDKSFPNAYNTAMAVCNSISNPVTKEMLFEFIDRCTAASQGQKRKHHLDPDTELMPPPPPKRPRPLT
UniProt O75449: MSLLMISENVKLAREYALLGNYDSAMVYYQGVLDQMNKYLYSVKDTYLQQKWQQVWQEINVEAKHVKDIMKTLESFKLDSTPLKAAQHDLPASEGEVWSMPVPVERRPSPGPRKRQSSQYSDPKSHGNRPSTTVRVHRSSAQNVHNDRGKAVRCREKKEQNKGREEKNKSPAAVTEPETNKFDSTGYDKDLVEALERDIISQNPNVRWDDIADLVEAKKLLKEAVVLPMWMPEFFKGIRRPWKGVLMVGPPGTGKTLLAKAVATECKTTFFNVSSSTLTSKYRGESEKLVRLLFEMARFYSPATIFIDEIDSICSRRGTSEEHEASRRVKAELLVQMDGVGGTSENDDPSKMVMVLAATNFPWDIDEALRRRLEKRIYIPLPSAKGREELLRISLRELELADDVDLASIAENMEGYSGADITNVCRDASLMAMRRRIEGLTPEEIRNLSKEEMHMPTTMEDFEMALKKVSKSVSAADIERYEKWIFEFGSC
UniProt O60701: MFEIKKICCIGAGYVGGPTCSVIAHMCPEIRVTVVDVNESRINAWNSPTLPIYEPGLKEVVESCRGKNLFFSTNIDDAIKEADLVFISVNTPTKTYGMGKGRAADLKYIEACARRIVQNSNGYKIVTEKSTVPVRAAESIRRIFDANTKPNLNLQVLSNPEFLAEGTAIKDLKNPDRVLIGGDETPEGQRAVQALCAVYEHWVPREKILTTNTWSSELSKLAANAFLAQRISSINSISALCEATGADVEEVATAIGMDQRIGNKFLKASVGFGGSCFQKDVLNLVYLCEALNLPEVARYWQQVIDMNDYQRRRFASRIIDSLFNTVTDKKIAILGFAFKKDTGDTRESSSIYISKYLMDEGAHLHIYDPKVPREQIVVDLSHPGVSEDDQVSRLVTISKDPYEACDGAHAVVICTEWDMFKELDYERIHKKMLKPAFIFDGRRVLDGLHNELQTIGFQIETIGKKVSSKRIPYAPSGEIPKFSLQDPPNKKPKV
UniProt O43264: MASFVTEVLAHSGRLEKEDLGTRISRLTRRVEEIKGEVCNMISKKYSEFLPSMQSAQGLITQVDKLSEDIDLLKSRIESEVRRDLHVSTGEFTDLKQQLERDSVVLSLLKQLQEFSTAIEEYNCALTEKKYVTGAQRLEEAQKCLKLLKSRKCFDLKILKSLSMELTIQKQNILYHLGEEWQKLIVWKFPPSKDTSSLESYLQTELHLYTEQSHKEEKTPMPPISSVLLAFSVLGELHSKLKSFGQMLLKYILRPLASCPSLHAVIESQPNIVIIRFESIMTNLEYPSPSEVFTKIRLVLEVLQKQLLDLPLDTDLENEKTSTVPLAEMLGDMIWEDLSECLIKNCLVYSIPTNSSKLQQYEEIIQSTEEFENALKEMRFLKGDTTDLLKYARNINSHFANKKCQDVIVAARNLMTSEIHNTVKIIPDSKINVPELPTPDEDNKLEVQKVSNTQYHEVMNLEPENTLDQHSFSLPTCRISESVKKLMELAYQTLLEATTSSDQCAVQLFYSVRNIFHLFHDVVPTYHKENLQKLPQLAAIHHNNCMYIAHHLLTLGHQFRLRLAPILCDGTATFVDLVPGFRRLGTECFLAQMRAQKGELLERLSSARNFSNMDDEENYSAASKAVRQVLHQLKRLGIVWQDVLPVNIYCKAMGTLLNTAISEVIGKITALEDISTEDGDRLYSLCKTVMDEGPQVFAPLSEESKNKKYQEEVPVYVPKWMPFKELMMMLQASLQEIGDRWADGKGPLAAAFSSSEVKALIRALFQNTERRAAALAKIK
UniProt O60333: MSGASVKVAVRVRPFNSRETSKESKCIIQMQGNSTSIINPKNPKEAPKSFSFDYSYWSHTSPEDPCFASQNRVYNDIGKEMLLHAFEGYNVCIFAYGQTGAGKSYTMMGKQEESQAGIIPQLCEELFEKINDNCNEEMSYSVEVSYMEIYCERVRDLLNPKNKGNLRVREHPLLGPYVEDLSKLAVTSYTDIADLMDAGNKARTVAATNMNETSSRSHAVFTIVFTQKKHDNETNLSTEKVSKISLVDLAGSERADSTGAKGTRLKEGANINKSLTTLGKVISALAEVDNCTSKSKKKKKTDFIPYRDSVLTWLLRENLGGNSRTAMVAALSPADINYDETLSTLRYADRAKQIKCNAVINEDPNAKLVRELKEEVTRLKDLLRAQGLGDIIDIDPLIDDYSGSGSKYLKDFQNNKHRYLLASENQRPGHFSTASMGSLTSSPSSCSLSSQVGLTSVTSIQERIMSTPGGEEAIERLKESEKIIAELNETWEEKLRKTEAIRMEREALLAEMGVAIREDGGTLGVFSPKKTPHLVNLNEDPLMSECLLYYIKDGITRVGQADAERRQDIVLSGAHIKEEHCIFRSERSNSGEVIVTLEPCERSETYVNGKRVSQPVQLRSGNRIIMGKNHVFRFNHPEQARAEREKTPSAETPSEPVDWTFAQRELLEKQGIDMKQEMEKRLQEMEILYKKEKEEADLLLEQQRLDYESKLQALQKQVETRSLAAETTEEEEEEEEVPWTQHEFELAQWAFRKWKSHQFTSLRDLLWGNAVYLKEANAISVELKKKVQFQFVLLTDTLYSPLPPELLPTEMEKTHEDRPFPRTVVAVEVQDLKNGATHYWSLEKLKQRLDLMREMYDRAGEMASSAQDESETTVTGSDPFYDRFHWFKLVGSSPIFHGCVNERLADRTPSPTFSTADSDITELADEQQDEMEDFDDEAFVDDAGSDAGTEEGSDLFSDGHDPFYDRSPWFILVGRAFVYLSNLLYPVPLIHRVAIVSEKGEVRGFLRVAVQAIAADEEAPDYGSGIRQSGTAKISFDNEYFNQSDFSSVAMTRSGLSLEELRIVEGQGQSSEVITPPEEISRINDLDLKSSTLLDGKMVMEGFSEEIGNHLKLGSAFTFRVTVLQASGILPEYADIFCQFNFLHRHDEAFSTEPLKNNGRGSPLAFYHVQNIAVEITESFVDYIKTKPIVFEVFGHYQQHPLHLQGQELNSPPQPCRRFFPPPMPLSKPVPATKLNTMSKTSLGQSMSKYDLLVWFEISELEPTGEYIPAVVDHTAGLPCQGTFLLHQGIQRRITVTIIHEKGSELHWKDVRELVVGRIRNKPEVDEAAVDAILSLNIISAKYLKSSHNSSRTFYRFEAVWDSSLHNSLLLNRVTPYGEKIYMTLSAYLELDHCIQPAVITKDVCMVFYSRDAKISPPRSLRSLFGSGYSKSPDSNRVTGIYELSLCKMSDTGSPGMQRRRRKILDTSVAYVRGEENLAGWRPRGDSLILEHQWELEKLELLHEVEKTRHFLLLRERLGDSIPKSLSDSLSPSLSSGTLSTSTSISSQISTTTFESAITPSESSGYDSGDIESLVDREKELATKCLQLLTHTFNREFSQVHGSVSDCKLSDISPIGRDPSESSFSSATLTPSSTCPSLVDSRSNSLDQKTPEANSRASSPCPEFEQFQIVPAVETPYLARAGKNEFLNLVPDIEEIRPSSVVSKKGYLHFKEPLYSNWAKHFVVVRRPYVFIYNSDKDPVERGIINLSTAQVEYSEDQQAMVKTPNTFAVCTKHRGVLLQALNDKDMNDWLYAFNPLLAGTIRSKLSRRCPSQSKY
UniProt O60343: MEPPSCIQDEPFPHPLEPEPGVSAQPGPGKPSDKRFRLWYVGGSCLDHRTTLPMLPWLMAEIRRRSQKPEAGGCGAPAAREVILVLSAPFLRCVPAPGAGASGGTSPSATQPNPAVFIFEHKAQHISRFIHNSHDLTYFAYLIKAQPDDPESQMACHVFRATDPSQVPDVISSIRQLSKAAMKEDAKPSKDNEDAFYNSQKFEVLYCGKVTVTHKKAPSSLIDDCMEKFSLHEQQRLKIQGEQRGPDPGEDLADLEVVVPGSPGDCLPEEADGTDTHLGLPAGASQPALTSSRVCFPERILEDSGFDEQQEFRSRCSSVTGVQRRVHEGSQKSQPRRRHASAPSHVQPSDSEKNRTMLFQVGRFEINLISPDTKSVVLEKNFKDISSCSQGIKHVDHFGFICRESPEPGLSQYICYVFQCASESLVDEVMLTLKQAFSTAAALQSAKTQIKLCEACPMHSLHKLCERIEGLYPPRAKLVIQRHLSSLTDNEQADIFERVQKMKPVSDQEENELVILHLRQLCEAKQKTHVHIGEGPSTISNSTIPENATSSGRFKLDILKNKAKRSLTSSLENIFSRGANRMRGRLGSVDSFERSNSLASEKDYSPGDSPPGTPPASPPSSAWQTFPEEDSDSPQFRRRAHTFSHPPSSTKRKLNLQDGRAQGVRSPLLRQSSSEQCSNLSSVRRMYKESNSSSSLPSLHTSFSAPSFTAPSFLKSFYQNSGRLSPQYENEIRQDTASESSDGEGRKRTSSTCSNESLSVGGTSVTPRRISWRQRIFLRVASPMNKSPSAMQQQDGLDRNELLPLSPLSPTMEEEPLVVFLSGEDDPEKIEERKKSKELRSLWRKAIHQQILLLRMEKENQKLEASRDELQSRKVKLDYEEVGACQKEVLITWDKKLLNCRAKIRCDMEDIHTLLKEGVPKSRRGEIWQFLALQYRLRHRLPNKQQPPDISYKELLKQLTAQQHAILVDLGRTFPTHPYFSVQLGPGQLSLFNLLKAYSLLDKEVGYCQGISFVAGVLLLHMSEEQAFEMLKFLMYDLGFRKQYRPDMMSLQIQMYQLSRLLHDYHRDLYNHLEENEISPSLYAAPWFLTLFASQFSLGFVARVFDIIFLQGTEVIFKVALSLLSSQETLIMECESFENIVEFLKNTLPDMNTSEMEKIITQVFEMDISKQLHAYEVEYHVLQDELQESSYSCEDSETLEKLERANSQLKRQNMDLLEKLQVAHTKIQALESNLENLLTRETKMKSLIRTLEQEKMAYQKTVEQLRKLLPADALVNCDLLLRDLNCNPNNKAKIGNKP

Compound: COC(=O)/C=C/c1ccccc1 [methyl cinnamate]
Test: log2 ratio of iodoacetamide-alkyne labeling of the cysteine site, DMSO over compound (competition); higher = stronger covalent engagement of the cysteine by the compound, active = 1 or more
Settings: 500 µM; treatment time 1 h; system: HEK293T cell lysate
In short: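 After 1 h at ambient temperature with vehicle or electrophile (500 µM), HEK293T lysate (2 mg/mL) was labelled for 1 h with iodoacetamide alkyne and clicked to sCIP-TMT reagents. Pooled samples were trypsin-digested overnight at 37 °C, streptavidin-enriched, acid-eluted and analysed by Orbitrap Eclipse LC-MS/MS with FAIMS, then quantified in FragPipe over three replicates with duplicate channels. A cysteine's log2 competition ratio is its mean control-channel over mean compound-channel reporter intensity. Cysteines quantified in only one replicate were not included.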

Target | log2 ratio of iodoacetamide-alkyne labeling
NDUFS6 C87 (UniProt O75380) | inactive: 0.261
ACTN4 C60 (UniProt O43707) | inactive: 0.07
OPA1 C801 (UniProt O60313) | inactive: 0.187
RNF40 C69 (UniProt O75150) | inactive: 0.235
RNGTT C97 (UniProt O60942) | inactive: -0.0468
UniProt O75153_C732 | inactive: 0.245
ATP6V1G1 C69 (UniProt O75348) | inactive: 0.299
KATNA1 C314 (UniProt O75449) | inactive: -0.0155
UGDH C241 (UniProt O60701) | inactive: 0.24
FZD6 C615 (UniProt O60353) | inactive: 0.323
ZW10 C650 (UniProt O43264) | inactive: 0.0466
SRGAP2 C893 (UniProt O75044) | inactive: 0.218
UniProt O75582_C714 | inactive: -0.0411
UniProt O60232_C53 | inactive: 0.238
WDR1 C170 (UniProt O75083) | inactive: 0.436
SGTA C129 (UniProt O43765) | inactive: 0.232
MED24 C336 (UniProt O75448) | inactive: 0.129
KIF1B C66 (UniProt O60333) | inactive: 0.144
PRC1 C132 (UniProt O43663) | inactive: 0.188
ACTN4 C351 (UniProt O43707) | inactive: 0.284
NCK2 C297 (UniProt O43639) | inactive: 0.132
UniProt O75934_C132 | inactive: -0.103
HNRNPR C240 (UniProt O43390) | inactive: 0.0339
TBC1D4 C45 (UniProt O60343) | inactive: 0.0286
SRP72 C349 (UniProt O76094) | inactive: -0.356
KIF1C C198 (UniProt O43896) | inactive: 0.0911
EIF3G C25 (UniProt O75821) | inactive: 0.108
WDHD1 C304 (UniProt O75717) | inactive: 0.172

In another format: results already given
UniProt O75153_C732
  log2 ratio of iodoacetamide-alkyne labeling: inactive: 0.245
ACTN4 C351 (UniProt O43707)
  log2 ratio of iodoacetamide-alkyne labeling: inactive: 0.284
